Results are given in words; binding and its absence hold for the method and conditions named. In cells and extracts the contact can be indirect. Some results given as binding are weak or reduced against the parent protein; the word gives no strength.
How the values were obtained:
[1] = target: green fluorescent protein (GFP)-tagged mouse HP1β (heterochromatin protein 1β) (mouse) (UniProt P83917); test: coimmunoprecipitation
[2] = target: green fluorescent protein (GFP)-tagged mouse HP1β (heterochromatin protein 1β) (mouse) (UniProt P83917); test: coimmunoprecipitation (legend of FIG. 4C)
[3] = target: green fluorescent protein (GFP)-tagged mouse HP1β (heterochromatin protein 1β) (mouse) (UniProt P83917); test: coimmunoprecipitation with anti-Flag from lysate of cotransfected MGC803 cells; Western blot with anti-GFP

Sequences of proteins named here, by UniProt entry; tags and fusion partners are left off. A change or cut given only in a name is not applied to a line headed by its entry.
UniProt P83917: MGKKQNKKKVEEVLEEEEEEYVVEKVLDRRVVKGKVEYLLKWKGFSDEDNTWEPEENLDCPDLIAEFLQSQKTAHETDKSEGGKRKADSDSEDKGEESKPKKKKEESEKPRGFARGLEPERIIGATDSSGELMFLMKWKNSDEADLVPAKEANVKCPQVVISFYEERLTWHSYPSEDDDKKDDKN
UniProt Q8N141: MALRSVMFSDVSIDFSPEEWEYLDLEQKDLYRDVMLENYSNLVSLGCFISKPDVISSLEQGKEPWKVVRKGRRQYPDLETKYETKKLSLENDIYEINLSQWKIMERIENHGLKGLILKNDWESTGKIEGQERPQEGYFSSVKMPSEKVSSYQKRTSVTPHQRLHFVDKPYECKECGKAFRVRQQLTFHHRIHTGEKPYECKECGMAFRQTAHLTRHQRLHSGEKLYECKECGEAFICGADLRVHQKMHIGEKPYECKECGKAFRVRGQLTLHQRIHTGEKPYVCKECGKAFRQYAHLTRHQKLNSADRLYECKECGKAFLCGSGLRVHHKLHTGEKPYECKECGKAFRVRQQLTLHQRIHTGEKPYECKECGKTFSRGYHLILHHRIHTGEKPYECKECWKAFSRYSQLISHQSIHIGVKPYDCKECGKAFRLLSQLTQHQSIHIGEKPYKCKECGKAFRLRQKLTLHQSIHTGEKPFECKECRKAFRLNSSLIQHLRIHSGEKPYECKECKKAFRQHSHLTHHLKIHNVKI

- binding [1]: binds
- binding [2]: binds
- binding [3]: binds
Substance: Flag-ZNF545 (Flag-tagged full-length human zinc-finger protein 545) (from UniProt Q8N141 1-532)

Reference: US20140274753A1
